For the assay, the target named is R255L SpDAAO (Schizosaccharomyces pombe) (UniProt Q9Y7N4). Kind of assay: native gel or EMSA. In general terms: A gel shift assay detects complexes by their altered migration in electrophoresis.

No constants are given. Whether binding was seen depends on the method and setting.

B1: R255L SpDAAO (enzyme, UniProt Q9Y7N4 1-348)
chain: MTKENKPRDIVIVGAGVIGLTTAWILSDLGLAPRIKVIAKYTPEDRSVEYTSPWAGANFCSISATDDNALRWDKITYHRFAYLAKTRPEAGIRFADLRELWEYEPKHDKIRSWNTYVRDFKVIPEKDLPGECIYGHKATTFLINAPHYLNYMYKLLIEAGVEFEKKELSHIKETVEETPEASVVFNCTGLWASKLGGVEDPDVYPTRGHVVLVKAPHVTETRILNGKNSDTYIIPRPLNGGVICGGFMQPGNWDLEIHPEDTLDILKRTSALMPELFHGKGPEGAEIIQECVGFRPSRKGGARVELDVVPGTSVPLVHDYGASGTGYQAGYGMALDSVMLALPKIKLA
For the molecule B1, the binding result is “no binding”.

The record behind these values is doi:10.1101/2025.03.23.644798 (bioRxiv, 2025).
